Assay results taken from publication PMC4761948.
Results are given in words; binding and its absence hold for the method and conditions named. In cells and extracts the contact can be indirect. Binding calls can cover weak binding; strength is not graded here. Sequences can lack the tags named with a protein.

Chains of the proteins cited; added tags and fusions are not shown. Lines headed by an entry give the natural chain unless they say otherwise; changes in a name come on top.
UniProt P23771: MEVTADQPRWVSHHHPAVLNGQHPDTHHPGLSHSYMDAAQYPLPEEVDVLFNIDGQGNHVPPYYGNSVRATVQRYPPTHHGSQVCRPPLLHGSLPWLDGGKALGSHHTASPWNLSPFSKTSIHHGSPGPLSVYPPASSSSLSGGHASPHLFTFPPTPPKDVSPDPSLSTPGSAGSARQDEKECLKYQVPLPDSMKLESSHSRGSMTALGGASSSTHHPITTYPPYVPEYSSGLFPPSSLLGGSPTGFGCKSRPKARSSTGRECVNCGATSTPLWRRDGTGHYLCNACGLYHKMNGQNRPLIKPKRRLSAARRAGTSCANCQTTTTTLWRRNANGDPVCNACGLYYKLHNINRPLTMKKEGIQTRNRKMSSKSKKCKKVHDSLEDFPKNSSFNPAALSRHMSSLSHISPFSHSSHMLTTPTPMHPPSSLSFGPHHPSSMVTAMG

Molecular target: T1, HA-GCM1 (human) (UniProt Q9NP62)
T1 sequence: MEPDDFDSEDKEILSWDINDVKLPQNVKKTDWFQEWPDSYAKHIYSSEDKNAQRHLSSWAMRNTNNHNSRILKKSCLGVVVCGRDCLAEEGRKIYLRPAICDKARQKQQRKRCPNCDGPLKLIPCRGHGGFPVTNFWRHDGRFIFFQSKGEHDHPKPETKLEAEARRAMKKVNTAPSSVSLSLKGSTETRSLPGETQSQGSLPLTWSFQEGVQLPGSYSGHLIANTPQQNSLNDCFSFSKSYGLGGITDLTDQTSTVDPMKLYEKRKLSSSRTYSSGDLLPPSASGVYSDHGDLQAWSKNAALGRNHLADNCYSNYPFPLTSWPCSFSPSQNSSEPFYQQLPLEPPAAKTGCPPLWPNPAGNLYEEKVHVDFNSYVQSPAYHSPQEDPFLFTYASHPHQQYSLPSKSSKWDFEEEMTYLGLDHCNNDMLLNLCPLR
Experiment: co-IP; Supplementary Figure 2; transient expression of Gal4-GATA3ΔZF1-FLAG and HA-GCM1; the method is not named in the sentence and is taken from the paragraph's mapping by coimmunoprecipitation

binding: binds
Substance: Gal4-GATA3ΔZF1-FLAG (from UniProt P23771)
